No constants are given. Whether binding was seen depends on the method and setting. Where a sequence is shown, tags or fusion partners need not be part of it.

The results in this text go back to publication PMC10307625, “Inhibiting membrane rupture with NINJ1 antibodies limits tissue injury” (Nature, 2023).

This experiment deals with N-terminally Flag-tagged mouse NINJ1 (mouse) (UniProt O70131). In words: condition: only co-expressed and co-purified with clone D1 Fab; negative-stain electron microscopy; Flag–NINJ1 co-expressed with clone D1 Fab, complex purified on anti-Flag M2 resin and SEC (peak at 15 ml), about 0.1 mg/ml in SEC buffer, 1% uranyl acetate; both purified.

B1: N-terminally Flag-tagged mouse NINJ1 (natural protein, UniProt O70131 1-152, looked up)
chain: MESGTEEYELNGDLRPGSPGSPDALPPRWGLRNRPINVNHYANKKSAAESMLDIALLMANASQLKAVVEQGNDFAFFVPLVVLISISLVLQIGVGVLLIFLVKYDLNNPAKHAKLDFLNNLATGLVFIIVVVNIFITAFGVQKPVMDVAPRQ
notes: NINJ1 (ninjurin-1), mouse, expressed from pRK-Flag-mNINJ1; Membrane protein solubilised in 1% LMNG / 0.1% CHS; the oligomer size is heterogeneous and no copy number is told; also called Flag–NINJ1; recombinant NINJ1; source: Expi293F cells, transiently transfected, purified (anti-Flag M2 resin, Superose 6 SEC) in LMNG/CHS; not shown: FLAG, N-terminal, kept
As for B1, the binding result is recorded as “no binding”.
